Data: patent US20250052678A1, “EVALUATION METHOD, EVALUATION DEVICE, AND INFORMATION PROCESSING PROGRAM” (HAMAMATSU PHOTONICS K.K., priority 2021, published 2025)

System: Human liver cancer-derived cells (HepG2) cell aggregates
Assay: Oleic acid concentration dependence of lipid droplet region in HepG2 cell aggregates, measuring method C (Example 3)
Assay type: cell-based
Details: 2 days
Method: Human liver cancer-derived cells (HepG2) were cultured for 2 days in a cell culture vessel (“EZSPHERE” manufactured by AGC-Techno Glass Co., Ltd.) having low-cell-adhesive compartments to prepare a cell aggregate. The low-cell-adhesive compartments are provided with a low-protein-adhesive coat. Cell aggregates were formed in a DMEM medium containing 10% fetal bovine serum in the low-cell-adhesive compartments. To the cell aggregate, sodium oleate was added at a final concentration of 75 μM, 150 μM or 300 μM in a DMEM medium containing 1% fatty acid-free bovine serum albumin instead of fetal bovine serum, and the cell aggregate was cultured for 2 days to induce formation of lipid droplets. A cell aggregate cultured for 2 days in a DMEM medium containing 1% fatty acid-free bovine serum albumin instead of fetal bovine serum without adding sodium oleate was also prepared. For each sample in which the concentration of oleic acid was 0 μM, 75 μM, 150 μM or 300 μM, the refractive index distribution data of the cell aggregate was acquired by the refractive index distribution measuring method C. The results of coloring for each refractive index are shown in A to C of FIG. 43. In the obtained refractive index distribution data, a region where the refractive index (n) was greater than 1.340 was determined as a cell aggregate region. In each sample, six cell aggregate regions having diameters of 75 to 150 μm and volumes of 500 to 5000 pL were extracted as evaluation objects. The diameters and volumes of the six cell aggregates of interest are shown in A and B of FIG. 44, respectively. […] In the cell aggregate region of interest, a region having a refractive index (n) of greater than 1.375 was determined as a lipid droplet region. The ratio of the volume of the lipid droplet region to the volume of the cell aggregate region of interest (also referred to as the “ratio of the lipid droplet region”).) was calculated.

SMILES: CCCCCCCC/C=C\CCCCCCCC(=O)O [oleic acid]
- average diameter of the six cell aggregates of interest (oleic acid 75 μM, standard deviation 13.3 μm): 111.5 μm
- average diameter of the six cell aggregates of interest (oleic acid 150 μM, standard deviation 14.4 μm): 109.6 μm
- average diameter of the six cell aggregates of interest (oleic acid 300 μM, standard deviation 15.3 μm): 103.0 μm
